Test results published in patent publication US20230226259A1, “NANOFIBER CARDIAC PATCH AND METHODS OF USE THEREOF” (Ohio State Innovation Foundation, priority 2020, published 2023).
Counter-ions that a name gives are not always drawn.

Test system: hiPSC-CMs
Assay: Multi-electrode array (MEA) field potentials of hiPSC-CMs cultured in 2-D or on aligned coaxial patches (3-D) after cardiac drugs
[1] = 3-D cultures, only after 100 nM

**Q.** Which results are given for `Cc1cccc(CCN2CCC(C(=O)c3ccc(NS(C)(=O)=O)cc3)CC2)n1` [E-4031, E4031 hydrochloride]?
**A.** samples showing beat period irregularity (CiPA) (2-D cultures, 50 nM): 16.67%; FPDc, change vs baseline (2-D cultures, 50 nM and 100 nM): significant increase; beat period, change vs baseline (2-D cultures, 50 nM and 100 nM): significant increase; samples showing beat period irregularity (CiPA) (2-D cultures, 100 nM): 33%; FPDc, change vs baseline [1]: significant increase; beat period, change vs baseline [1]: significant increase; patches showing beat period irregularity (CiPA) (3-D patches, dose not stated): 60%; spike amplitude, change (both 2-D and 3-D cultures, 100 nM): significant decrease; beating frequency (beats per minute) (both 2-D and 3-D cultures, change after treatment): decrease
